Results as given in article PMC4510650, “TD-60 links RalA GTPase function to the CPC in mitosis” (Nature Communications, 2015).
These are yes or no findings as the source states them, for the method shown. Binding seen in cells or lysates may run through a third protein. Some binding calls cover weakened binding; strength is not graded here. Tags and fused reporters may be left off the sequences shown.

The chains behind the UniProt entries cited, without tags or fusion partners.
UniProt Q9P258: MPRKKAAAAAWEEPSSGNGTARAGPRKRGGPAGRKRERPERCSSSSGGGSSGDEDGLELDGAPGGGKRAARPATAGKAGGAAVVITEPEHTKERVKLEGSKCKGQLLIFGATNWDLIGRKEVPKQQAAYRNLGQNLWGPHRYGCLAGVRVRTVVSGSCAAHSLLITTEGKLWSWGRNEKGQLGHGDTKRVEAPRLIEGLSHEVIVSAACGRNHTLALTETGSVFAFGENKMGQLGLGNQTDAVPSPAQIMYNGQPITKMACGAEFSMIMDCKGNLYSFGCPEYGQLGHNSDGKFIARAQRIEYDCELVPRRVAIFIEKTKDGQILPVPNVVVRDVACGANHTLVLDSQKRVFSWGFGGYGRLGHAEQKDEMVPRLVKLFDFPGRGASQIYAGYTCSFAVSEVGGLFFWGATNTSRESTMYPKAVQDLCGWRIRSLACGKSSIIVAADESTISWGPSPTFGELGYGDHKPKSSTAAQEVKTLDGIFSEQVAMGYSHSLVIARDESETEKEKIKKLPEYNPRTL

Biological target: T1, GFP-tagged RalA G26A (GDP-locked) (human) (UniProt P11233)
T1 sequence: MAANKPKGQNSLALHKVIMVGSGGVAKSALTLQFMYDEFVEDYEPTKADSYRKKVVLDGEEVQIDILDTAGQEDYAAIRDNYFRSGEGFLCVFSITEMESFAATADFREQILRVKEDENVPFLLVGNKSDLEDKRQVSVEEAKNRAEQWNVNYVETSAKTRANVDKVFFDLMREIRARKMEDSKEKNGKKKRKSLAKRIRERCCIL
Test: co-IP; GFP-Trap-M magnetic beads on lysates of transfected HeLa Kyoto cells (48 h); lysis buffer 50 mM Tris pH 8.0, 0.4 M NaCl, 0.5% NP-40, 0.5% deoxycholate; immunoblot for GFP and TD-60/RCC2

endogenous TD-60 (from UniProt Q9P258 1-522)
binding: binds
